Measurements from article doi:10.1101/2021.11.30.470516.
These are yes or no findings as the source states them, for the method shown. In cells and extracts the contact can be indirect. Some entries that bind do so weakly or less than the wild type.

Protein sequences, listed by entry. Tags and fused reporters are not part of them.
UniProt P29590: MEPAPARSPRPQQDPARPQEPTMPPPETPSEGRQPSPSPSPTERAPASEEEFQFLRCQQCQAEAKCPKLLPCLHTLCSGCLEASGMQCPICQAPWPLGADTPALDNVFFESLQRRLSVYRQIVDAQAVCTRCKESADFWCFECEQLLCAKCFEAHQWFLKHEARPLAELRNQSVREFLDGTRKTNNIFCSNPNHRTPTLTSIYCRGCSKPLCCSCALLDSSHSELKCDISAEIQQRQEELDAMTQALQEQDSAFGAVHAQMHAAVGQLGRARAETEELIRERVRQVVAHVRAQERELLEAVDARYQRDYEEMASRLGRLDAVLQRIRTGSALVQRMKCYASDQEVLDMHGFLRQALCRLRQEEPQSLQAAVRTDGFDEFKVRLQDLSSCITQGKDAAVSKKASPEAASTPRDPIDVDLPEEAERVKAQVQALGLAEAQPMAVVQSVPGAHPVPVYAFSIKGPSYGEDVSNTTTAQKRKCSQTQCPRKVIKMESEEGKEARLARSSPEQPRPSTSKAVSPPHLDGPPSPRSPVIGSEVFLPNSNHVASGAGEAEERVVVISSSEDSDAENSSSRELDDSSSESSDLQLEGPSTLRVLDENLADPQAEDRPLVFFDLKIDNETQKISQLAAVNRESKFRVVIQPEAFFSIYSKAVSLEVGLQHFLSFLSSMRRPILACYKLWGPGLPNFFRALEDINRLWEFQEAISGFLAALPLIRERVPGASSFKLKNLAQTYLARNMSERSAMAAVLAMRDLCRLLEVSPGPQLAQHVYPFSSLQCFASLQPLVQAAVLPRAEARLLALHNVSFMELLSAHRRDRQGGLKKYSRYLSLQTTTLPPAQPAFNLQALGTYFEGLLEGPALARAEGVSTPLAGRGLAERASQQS
UniProt P54198: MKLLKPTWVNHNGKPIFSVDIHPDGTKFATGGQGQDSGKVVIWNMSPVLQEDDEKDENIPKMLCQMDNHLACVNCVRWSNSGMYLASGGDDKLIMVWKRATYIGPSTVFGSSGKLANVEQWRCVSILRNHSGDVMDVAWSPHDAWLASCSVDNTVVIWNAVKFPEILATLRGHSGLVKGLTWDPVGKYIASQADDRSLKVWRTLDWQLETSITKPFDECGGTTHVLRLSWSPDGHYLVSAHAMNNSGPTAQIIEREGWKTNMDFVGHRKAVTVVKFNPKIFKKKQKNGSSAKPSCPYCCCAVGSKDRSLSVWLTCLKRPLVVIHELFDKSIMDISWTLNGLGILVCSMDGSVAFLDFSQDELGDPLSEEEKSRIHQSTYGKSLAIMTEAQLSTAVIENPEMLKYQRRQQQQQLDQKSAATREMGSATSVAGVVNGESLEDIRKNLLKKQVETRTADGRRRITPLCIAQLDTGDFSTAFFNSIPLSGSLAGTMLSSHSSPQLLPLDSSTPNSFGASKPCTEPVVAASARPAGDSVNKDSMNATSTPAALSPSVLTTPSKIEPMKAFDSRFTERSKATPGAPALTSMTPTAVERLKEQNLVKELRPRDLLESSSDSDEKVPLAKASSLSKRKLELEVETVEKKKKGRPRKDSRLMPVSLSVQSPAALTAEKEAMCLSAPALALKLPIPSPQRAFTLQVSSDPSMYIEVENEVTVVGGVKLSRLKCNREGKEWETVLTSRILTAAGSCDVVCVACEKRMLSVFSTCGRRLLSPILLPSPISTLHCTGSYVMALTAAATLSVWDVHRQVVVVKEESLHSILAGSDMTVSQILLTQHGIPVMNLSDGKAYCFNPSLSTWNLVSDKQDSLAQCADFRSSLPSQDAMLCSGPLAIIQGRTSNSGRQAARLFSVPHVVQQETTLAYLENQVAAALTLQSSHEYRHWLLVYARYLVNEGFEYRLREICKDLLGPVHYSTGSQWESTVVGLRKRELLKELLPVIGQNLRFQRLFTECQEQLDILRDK

Molecular target: Promyelocytic Leukemia protein (PML) (human (endogenous in BJ)) (UniProt P29590)
Experiment: proximity ligation

binding: binds
Substance: Histone cell cycle regulator A (HIRA) (from UniProt P54198 1-1017)
